Experimental data from US20110207675A1.
No constants are given. Whether binding was seen depends on the method and setting. Binding seen in cells or lysates may run through a third protein. Some results given as binding are weak or reduced against the parent protein; the word gives no strength. Tags and fused reporters may be left off the sequences shown.

Experiments:
[1] = biological target: T1, ETS domain of ERG expressed as HaloTag fusion protein (UniProt P11308); assay: competition pull-down, GST-AR as competitor (FIG. 30)
T1 sequence (looked up): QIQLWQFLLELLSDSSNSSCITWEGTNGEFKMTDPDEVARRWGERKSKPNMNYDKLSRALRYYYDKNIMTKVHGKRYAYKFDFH

[2] = biological target: T1, ETS domain of ERG expressed as HaloTag fusion protein; assay: competition pull-down: Halo-ETS beads, GST-AR as competitor, various peptide concentrations, anti-GST blot

- binding [1]: binds
- binding [2]: binds
Binder: LSFGSLP [synthetic peptide LSFGSLP]
